Several values for one entry are separate records, joined by “and”; a condition that tells them apart may be missing. Equal values may be shown once. This continues a long series; more values of the same kind are listed elsewhere.
Assay: Body weight and tolerability of tumour bearing mice
Conditions: individual animals

CCn1c(-c2cc(N3CCN(C4CC4)CC3)cnc2[C@H](C)OC)c2c3cc(ccc31)-c1csc(n1)C[C@H](NC(=O)[C@H]1[C@@H]3COC[C@@H]31)C(=O)N1CCC[C@H](N1)C(=O)OCC(C)(C)C2 [RMC-7977]
% Body Weight Change (CRC039, RMC-7977 10 mg/kg po qd, day 0 on study): 0.00%
% Body Weight Change (CRC039, RMC-7977 10 mg/kg po qd, day 4 on study, 10 mg/kg): -1.45% and 1.00% and 0.00%
% Body Weight Change (CRC039, RMC-7977 10 mg/kg po qd, day 7 on study, 10 mg/kg): -1.45% and -2.49% and -0.86%
% Body Weight Change (CRC039, RMC-7977 10 mg/kg po qd, day 11 on study, 10 mg/kg): -3.38% and -1.49% and -3.88%
% Body Weight Change (CRC039, RMC-7977 10 mg/kg po qd, day 14 on study, 10 mg/kg): -3.38% and -0.50% and -4.31%
% Body Weight Change (CRC039, RMC-7977 10 mg/kg po qd, day 18 on study, 10 mg/kg): -2.42% and 1.00% and -1.29%
% Body Weight Change (CRC039, RMC-7977 10 mg/kg po qd, day 21 on study, 10 mg/kg): -3.38% and -0.50% and -2.59%
% Body Weight Change (CRC039, RMC-7977 10 mg/kg po qd, day 25 on study, 10 mg/kg): -1.93% and -0.50% and -1.29%
% Body Weight Change (CRC039, RMC-7977 10 mg/kg po qd, day 28 on study, 10 mg/kg): -4.35% and -1.00% and -1.29%
% Body Weight Change (CRC G12D model, RMC-7977 10 mg/kg po qd, day 0 on study): 0%
% Body Weight Change (CRC G12D model, RMC-7977 10 mg/kg po qd, day 3 on study, 10 mg/kg): -12.5% and -10% and -8.696% (2×) and 0%
% Body Weight Change (CRC G12D model, RMC-7977 10 mg/kg po qd, day 7 on study, 10 mg/kg): -20.8333% and -10% and -13.0435% (2×) and 0%
% Body Weight Change (CRC G12D model, RMC-7977 10 mg/kg po qd, day 10 on study, 10 mg/kg): -20.8333% and -10% and -17.3913% and -21.7391% and -4.167%
% Body Weight Change (CRC G12D model, RMC-7977 10 mg/kg po qd, day 14 on study, 10 mg/kg): -20.8333% and -10% and -17.3913% (2×) and -4.167%
% Body Weight Change (CRC G12D model, RMC-7977 10 mg/kg po qd, day 17 on study, 10 mg/kg): -20.8333% and -15% and -21.7391% (2×) and -8.333%
% Body Weight Change (CRC G12D model, RMC-7977 10 mg/kg po qd, day 20 on study, 10 mg/kg): -16.6667% and -10% and -17.3913% (2×) and -8.333%
% Body Weight Change (CRC G12D model, RMC-7977 10 mg/kg po qd, day 23 on study, 10 mg/kg): -20.8333% and -15% and -21.7391% (2×) and -12.5%
% Body Weight Change (CRC G12D model, RMC-7977 10 mg/kg po qd, day 27 on study, 10 mg/kg): -16.6667% and -10% and -17.3913% (2×) and -12.5%
% Body Weight Change (CRC G12S, RMC-7977 10 mg/kg po qd, day 0 on study): 0%
% Body Weight Change (CRC G12S, RMC-7977 10 mg/kg po qd, day 3 on study, 10 mg/kg): 0% (4×) and -4.348%
% Body Weight Change (CRC G12S, RMC-7977 10 mg/kg po qd, day 7 on study, 10 mg/kg): 4.7619% and 0% (3×) and 4.348%
% Body Weight Change (CRC G12S, RMC-7977 10 mg/kg po qd, day 10 on study, 10 mg/kg): 9.524% and 0% (2×) and 4.348% and -4.348%
% Body Weight Change (CRC G12S, RMC-7977 10 mg/kg po qd, day 14 on study, 10 mg/kg): 4.7619% and 0% (2×) and 4.348% and -4.348%
% Body Weight Change (CRC G12S, RMC-7977 10 mg/kg po qd, day 17 on study, 10 mg/kg): 4.7619% and 0% (2×) and 4.348% and -17.3913%
% Body Weight Change (CRC G12S, RMC-7977 10 mg/kg po qd, day 20 on study, 10 mg/kg): 4.7619% and 4.545% and 4.348% and -8.696% and 4%
% Body Weight Change (CRC G12S, RMC-7977 10 mg/kg po qd, day 23 on study, 10 mg/kg): 0% (4×) and 4%
% Body Weight Change (CRC G12S, RMC-7977 10 mg/kg po qd, day 27 on study, 10 mg/kg): 9.524% and 4.545% and 4.348% (2×) and 4%
% Body Weight Change (CRC G12V, RMC-7977 10 mg/kg po qd, day 0 on study): 0.00%
% Body Weight Change (CRC G12V, RMC-7977 10 mg/kg po qd, day 4 on study, 10 mg/kg): 4.55% and 0.00% (4×)
% Body Weight Change (CRC G12V, RMC-7977 10 mg/kg po qd, day 7 on study, 10 mg/kg): 0.00% (4×) and 4.17%
% Body Weight Change (CRC G12V, RMC-7977 10 mg/kg po qd, day 11 on study, 10 mg/kg): 0.00% (3×) and -3.85% and 4.17%
% Body Weight Change (CRC G12V, RMC-7977 10 mg/kg po qd, day 14 on study, 10 mg/kg): 0.00% (2×) and -7.69% and 4.17% and -4.55%
% Body Weight Change (CRC G12V, RMC-7977 10 mg/kg po qd, day 18 on study, 10 mg/kg): 4.55% and -3.85% and 8.33% and 4.35% and 0.00%
% Body Weight Change (CRC G12V, RMC-7977 10 mg/kg po qd, day 21 on study, 10 mg/kg): 0.00% (2×) and -19.23% and 4.17% and -4.55%
% Body Weight Change (CRC G12V, RMC-7977 10 mg/kg po qd, day 25 on study, 10 mg/kg): 0.00% and -15.38% and 8.33% and -4.35% and -4.55%
% Body Weight Change (CRC G12V, RMC-7977 10 mg/kg po qd, day 28 on study, 10 mg/kg): 0.00% (2×) and -15.38% and 8.33% and -4.55%
% Body Weight Change (HPAC, RMC-7977 10 mg/kg po qd, day 0 on study): 0%
% Body Weight Change (HPAC, RMC-7977 10 mg/kg po qd, day 7 on study, 10 mg/kg): -5.988% and -0.4904% and 1.904% and 10.6566% and -20.6127% and 0.1898% and -1.319% and -1.193% and 4.667% and -7.53% and -2.84% and -1.167% and -5.198% and -3.326% and -1.3805% and 0.3422% and -2.984% and -0.3567%
% Body Weight Change (HPAC, RMC-7977 10 mg/kg po qd, day 14 on study, 10 mg/kg): -1.796% and 6.687% and 3.958% and 12.5758% and -7.702% and 2.848% and 3.908% and 5.022% and 9.583% and -2.151% and -3.848% and -1.667% and -5.156% and -8.47% and 0.906% and -4.021% and -0.6143% and 2.051%
% Body Weight Change (HPAC, RMC-7977 10 mg/kg po qd, day 21 on study, 10 mg/kg): 1.597% and 6.286% and 2.104% and 15.3535% and -4.726% and 0.8543% and 2.198% and 2.238% and 9.732% and -3.227% and -4.214% and 0.5833% and -11.3514% and -9.978% and 0.8197% and -4.32% and 1.624% and 2.452%
% Body Weight Change (HPAC, RMC-7977 10 mg/kg po qd, day 28 on study, 10 mg/kg): 0.3493% and 0% and 2.705% and 17.5758% and -3.72% and -0.04746% and 1.075% and 6.464% and 4.866% and -4.217% and -4.902% and -0.2917% and -9.73% and -9.933% and 1.682% and -0.1711% and 2.326% and 5.216%
% Body Weight Change (Hup-T3, RMC-7977 10 mg/kg po qd, day 0 on study): 0.00%
% Body Weight Change (Hup-T3, RMC-7977 10 mg/kg po qd, day 3 on study, 10 mg/kg): -1.37% and -1.45% and -1.74% and -0.43% and 2.16%
% Body Weight Change (Hup-T3, RMC-7977 10 mg/kg po qd, day 7 on study, 10 mg/kg): 4.11% and 3.38% and 0.43% and 3.00% and 3.03%
% Body Weight Change (Hup-T3, RMC-7977 10 mg/kg po qd, day 10 on study, 10 mg/kg): 0.00% and 0.48% and -0.87% and 3.86% and 2.16%
% Body Weight Change (Hup-T3, RMC-7977 10 mg/kg po qd, day 14 on study, 10 mg/kg): -1.37% and -1.93% and -0.43% and -1.72% and -1.73%
% Body Weight Change (Hup-T3, RMC-7977 10 mg/kg po qd, day 17 on study, 10 mg/kg): 1.37% and -1.93% and 6.09% and 6.01% and 4.33%
% Body Weight Change (Hup-T3, RMC-7977 10 mg/kg po qd, day 21 on study, 10 mg/kg): -1.83% and -3.86% and 7.39% and 2.58% and 1.30%
% Body Weight Change (Hup-T3, RMC-7977 10 mg/kg po qd, day 24 on study, 10 mg/kg): -4.57% and -3.38% and 8.26% and 1.29% and -2.16%
% Body Weight Change (Hup-T3, RMC-7977 10 mg/kg po qd, day 28 on study, 10 mg/kg): -2.74% and 0.00% and 6.09% and 7.73% and 0.87%
% Body Weight Change (LUAD G12C model, RMC-7977 10 mg/kg po qd, day 0 on study): 0.00%
% Body Weight Change (LUAD G12C model, RMC-7977 10 mg/kg po qd, day 4 on study, 10 mg/kg): -4.17% and 0.00% (3×) and -3.85%
% Body Weight Change (LUAD G12C model, RMC-7977 10 mg/kg po qd, day 7 on study, 10 mg/kg): -4.17% and 0.00% and -7.69% and -3.85% and -4.35%
% Body Weight Change (LUAD G12C model, RMC-7977 10 mg/kg po qd, day 12 on study, 10 mg/kg): -8.33% and 4.35% and -7.69% (2×) and 0.00%
% Body Weight Change (LUAD G12C model, RMC-7977 10 mg/kg po qd, day 19 on study, 10 mg/kg): -4.17% and 0.00% and -3.85% (2×) and -4.35%
% Body Weight Change (LUAD G12C model, RMC-7977 10 mg/kg po qd, day 22 on study, 10 mg/kg): -4.17% and 4.35% and 0.00% (2×) and -3.85%
% Body Weight Change (LUAD G12C model, RMC-7977 10 mg/kg po qd, day 26 on study, 10 mg/kg): -4.17% and 0.00% (4×)
% Body Weight Change (LUAD G12C model, RMC-7977 10 mg/kg po qd, day 29 on study, 10 mg/kg): -4.17% and 4.35% (2×) and 3.85% and 0.00%
% Body Weight Change (LUAD G12D model, RMC-7977 10 mg/kg po qd, day 0 on study): 0.00%
% Body Weight Change (LUAD G12D model, RMC-7977 10 mg/kg po qd, day 4 on study, 10 mg/kg): -4.55% and 0.00% (3×) and -4.00%
% Body Weight Change (LUAD G12D model, RMC-7977 10 mg/kg po qd, day 7 on study, 10 mg/kg): -4.55% and -4.00% and 0.00% and -4.17% and -4.35%
% Body Weight Change (LUAD G12D model, RMC-7977 10 mg/kg po qd, day 11 on study, 10 mg/kg): -4.55% and 0.00% (3×) and 4.35%
% Body Weight Change (LUAD G12D model, RMC-7977 10 mg/kg po qd, day 14 on study, 10 mg/kg): -9.09% and -4.00% and 0.00% (2×) and -8.33%
% Body Weight Change (LUAD G12D model, RMC-7977 10 mg/kg po qd, day 19 on study, 10 mg/kg): -4.55% and 4.00% and 0.00% (3×)
% Body Weight Change (LUAD G12D model, RMC-7977 10 mg/kg po qd, day 22 on study, 10 mg/kg): 0.00% (4×) and 4.00%
% Body Weight Change (LUAD G12D model, RMC-7977 10 mg/kg po qd, day 26 on study, 10 mg/kg): 0.00% and 4.00% (2×) and 4.17% and 4.35%
% Body Weight Change (LUAD G12D model, RMC-7977 10 mg/kg po qd, day 29 on study): 0.00%
% Body Weight Change (LUN352 model, RMC-7977 10 mg/kg po qd, day 0 on study): 0.00%
